{"source": "patent US10563263B2", "about": "“Genetic polymorphisms associated with statin response and cardiovascular diseases, methods of detection and uses thereof” (CELERA CORPORATION, priority 2010, dated 2020)", "system": "CHD", "assay": "Meta-analysis of CARE and WOSCOPS combined, synergy index, CHD endpoint", "format": "in vivo, human", "settings": "for OR(R): random effect; for OR: fixed effect", "from_the_text": "Tables 4-5 provide meta-analyses of CARE and WOSCOPS combined (2nd section of each table) for two endpoints (CHD and CVD) and three genetic models (dominant, recessive, and additive), as well as logistic regression analyses of CARE (3rd section of each table) and WOSCOPS (4th section of each table) individually.\nTables 12 and 17 provide results of meta-analysis of the CARE and WOSCOPS sample sets combined by direct genotyping and by imputing genotypes.\n“P” indicates the p-value, and “P(R)” (or “P.R.”) indicates the p-value random effect. Both of these are p-values corresponding to a statistical test of whether the combined synergy index is equal to one but use different assumptions to derive the p-value. “P” is calculated using a fixed effects model, and “P(R)” is calculated using a random effects model.\n“OR” indicates the odds ratio (synergy index) calculated from a fixed effects model, and “OR(R)” (or “OR.R.”) indicates the odds ratio (synergy index) calculated from a random effects model.", "key": {"[1]": {"settings": "rs1424643 allele G DOMINANT Imputed"}, "[2]": {"settings": "rs1424648 allele T DOMINANT Imputed"}, "[3]": {"settings": "rs1429321 allele A DOMINANT Imputed"}, "[4]": {"settings": "rs1429326 allele T ADDITIVE Imputed"}, "[5]": {"settings": "rs1429326 allele T DOMINANT Imputed"}, "[6]": {"settings": "rs1444741 allele A DOMINANT Imputed"}, "[7]": {"settings": "rs1449916 allele C DOMINANT Imputed"}, "[8]": {"settings": "rs1459523 allele A ADDITIVE Imputed"}, "[9]": {"settings": "rs1459523 allele A GENOTYPIC Imputed"}, "[10]": {"settings": "rs1466352 allele T GENOTYPIC Imputed"}, "[11]": {"settings": "rs1466353 allele G GENOTYPIC Imputed"}, "[12]": {"settings": "rs1476714 allele A DOMINANT Imputed"}, "[13]": {"settings": "rs1486723 allele C RECESSIVE Imputed"}, "[14]": {"settings": "rs1495375 allele A ADDITIVE Imputed"}, "[15]": {"settings": "rs1495375 allele A DOMINANT Imputed"}, "[16]": {"settings": "rs1495381 allele T GENOTYPIC Imputed"}, "[17]": {"settings": "rs1495381 allele T RECESSIVE Imputed"}, "[18]": {"settings": "rs1498061 allele C ADDITIVE Imputed"}, "[19]": {"settings": "rs1498992 allele G DOMINANT Imputed"}, "[20]": {"settings": "rs1499001 allele T DOMINANT Imputed"}, "[21]": {"settings": "rs1512988 allele A ADDITIVE Imputed"}, "[22]": {"settings": "rs1512988 allele A DOMINANT Imputed"}, "[23]": {"settings": "rs1512989 allele T ADDITIVE Imputed"}, "[24]": {"settings": "rs1512989 allele T DOMINANT Imputed"}, "[25]": {"settings": "rs1512991 allele T ADDITIVE Imputed"}, "[26]": {"settings": "rs1512991 allele T DOMINANT Imputed"}, "[27]": {"settings": "rs1512991 allele T GENOTYPIC Imputed"}, "[28]": {"settings": "rs1524303 allele T GENOTYPIC Imputed"}, "[29]": {"settings": "rs1524306 allele C ADDITIVE Imputed"}, "[30]": {"settings": "rs1524306 allele C GENOTYPIC Imputed"}, "[31]": {"settings": "rs1524310 allele G ADDITIVE Imputed"}, "[32]": {"settings": "rs1524310 allele G GENOTYPIC Imputed"}, "[33]": {"settings": "rs1524321 allele C GENOTYPIC Imputed"}, "[34]": {"settings": "rs1527059 allele A DOMINANT Imputed"}, "[35]": {"settings": "rs1533994 allele T GENOTYPIC Imputed"}, "[36]": {"settings": "rs1535866 allele G DOMINANT Imputed"}, "[37]": {"settings": "rs1563773 allele T GENOTYPIC Imputed"}, "[38]": {"settings": "rs1563774 allele T GENOTYPIC Imputed"}, "[39]": {"settings": "rs1567740 allele T ADDITIVE Imputed"}, "[40]": {"settings": "rs1567740 allele T DOMINANT Imputed"}, "[41]": {"settings": "rs1572573 allele A DOMINANT Imputed"}, "[42]": {"settings": "rs1577497 allele C RECESSIVE Imputed"}, "[43]": {"settings": "rs1581514 allele T ADDITIVE Imputed"}, "[44]": {"settings": "rs1581514 allele T GENOTYPIC Imputed"}, "[45]": {"settings": "rs1582321 allele T DOMINANT Imputed"}, "[46]": {"settings": "rs1582322 allele A DOMINANT Imputed"}}, "note": "The source gives many values for each of these; only a part stands here.", "data": [{"smiles": "CC[C@H](C)C(=O)O[C@H]1C[C@H](O)C=C2C=C[C@H](C)[C@H](CC[C@@H](O)C[C@@H](O)CC(=O)O)[C@H]21", "note": "[Pravastatin, pravastatin]", "values": [{"measurement": "OR(R)", "setting": "rs1424643 allele G ADDITIVE Imputed", "result": 1.4199}, {"measurement": "OR", "setting": "[1]", "result": 1.5226}, {"measurement": "OR(R)", "setting": "[1]", "result": 1.5226}, {"measurement": "OR", "setting": "[2]", "result": 1.4456}, {"measurement": "OR(R)", "setting": "[2]", "result": 1.4456}, {"measurement": "OR", "setting": "[3]", "result": 1.4871}, {"measurement": "OR(R)", "setting": "[3]", "result": 1.4871}, {"measurement": "OR", "setting": "[4]", "result": 1.3974}, {"measurement": "OR(R)", "setting": "[4]", "result": 1.3974}, {"measurement": "OR", "setting": "[5]", "result": 1.5125}, {"measurement": "OR(R)", "setting": "[5]", "result": 1.5125}, {"measurement": "OR", "setting": "[6]", "result": 0.605}, {"measurement": "OR(R)", "setting": "[6]", "result": 0.605}, {"measurement": "OR", "setting": "[7]", "result": 0.5247}, {"measurement": "OR(R)", "setting": "[7]", "result": 0.5244}, {"measurement": "OR", "setting": "[8]", "result": 1.3969}, {"measurement": "OR(R)", "setting": "[8]", "result": 1.3969}, {"measurement": "OR", "setting": "[9]", "result": 2.0995}, {"measurement": "OR(R)", "setting": "[9]", "result": 2.0995}, {"measurement": "OR", "setting": "[10]", "result": 2.0358}, {"measurement": "OR(R)", "setting": "[10]", "result": 2.0358}, {"measurement": "OR", "setting": "[11]", "result": 2.0365}, {"measurement": "OR(R)", "setting": "[11]", "result": 2.0365}, {"measurement": "OR", "setting": "[12]", "result": 0.6713}, {"measurement": "OR(R)", "setting": "[12]", "result": 0.6713}, {"measurement": "OR", "setting": "[13]", "result": 0.4982}, {"measurement": "OR(R)", "setting": "[13]", "result": 0.4982}, {"measurement": "OR", "setting": "[14]", "result": 0.7269}, {"measurement": "OR(R)", "setting": "[14]", "result": 0.7269}, {"measurement": "OR", "setting": "[15]", "result": 0.6177}, {"measurement": "OR(R)", "setting": "[15]", "result": 0.6177}, {"measurement": "OR", "setting": "[16]", "result": 1.6918}, {"measurement": "OR(R)", "setting": "[16]", "result": 1.6918}, {"measurement": "OR", "setting": "[17]", "result": 1.7303}, {"measurement": "OR(R)", "setting": "[17]", "result": 1.7303}, {"measurement": "OR", "setting": "[18]", "result": 0.5363}, {"measurement": "OR(R)", "setting": "[18]", "result": 0.5363}, {"measurement": "OR", "setting": "[19]", "result": 0.6388}, {"measurement": "OR(R)", "setting": "[19]", "result": 0.6388}, {"measurement": "OR", "setting": "[20]", "result": 0.6155}, {"measurement": "OR(R)", "setting": "[20]", "result": 0.6155}, {"measurement": "OR", "setting": "[21]", "result": 0.7101}, {"measurement": "OR(R)", "setting": "[21]", "result": 0.7101}, {"measurement": "OR", "setting": "[22]", "result": 0.6074}, {"measurement": "OR(R)", "setting": "[22]", "result": 0.6074}, {"measurement": "OR", "setting": "[23]", "result": 0.7101}, {"measurement": "OR(R)", "setting": "[23]", "result": 0.7101}, {"measurement": "OR", "setting": "[24]", "result": 0.6074}, {"measurement": "OR(R)", "setting": "[24]", "result": 0.6074}, {"measurement": "OR", "setting": "[25]", "result": 0.7396}, {"measurement": "OR(R)", "setting": "[25]", "result": 0.7396}, {"measurement": "OR", "setting": "[26]", "result": 0.6115}, {"measurement": "OR(R)", "setting": "[26]", "result": 0.6115}, {"measurement": "OR", "setting": "[27]", "result": 0.5777}, {"measurement": "OR(R)", "setting": "[27]", "result": 0.5777}, {"measurement": "OR", "setting": "[28]", "result": 2.0455}, {"measurement": "OR(R)", "setting": "[28]", "result": 2.0455}, {"measurement": "OR", "setting": "[29]", "result": 1.3995}, {"measurement": "OR(R)", "setting": "[29]", "result": 1.3995}, {"measurement": "OR", "setting": "[30]", "result": 2.1056}, {"measurement": "OR(R)", "setting": "[30]", "result": 2.1056}, {"measurement": "OR", "setting": "[31]", "result": 1.404}, {"measurement": "OR(R)", "setting": "[31]", "result": 1.404}, {"measurement": "OR", "setting": "[32]", "result": 2.1176}, {"measurement": "OR(R)", "setting": "[32]", "result": 2.1176}, {"measurement": "OR", "setting": "[33]", "result": 2.0756}, {"measurement": "OR(R)", "setting": "[33]", "result": 2.0756}, {"measurement": "OR", "setting": "[34]", "result": 0.6321}, {"measurement": "OR(R)", "setting": "[34]", "result": 0.6321}, {"measurement": "OR", "setting": "[35]", "result": 2.0565}, {"measurement": "OR(R)", "setting": "[35]", "result": 2.0565}, {"measurement": "OR", "setting": "[36]", "result": 1.5272}, {"measurement": "OR(R)", "setting": "[36]", "result": 1.5369}, {"measurement": "Meta-analysis OR", "setting": "rs1536506, A1 (non-ref) A, A2 (ref) G", "result": 1.49}, {"measurement": "Meta-analysis OR", "setting": "rs1538185 allele A vs G (ref)", "result": 1.60}, {"measurement": "Meta-analysis OR", "setting": "rs1544214 allele A vs G (ref)", "result": 1.38}, {"measurement": "OR", "setting": "[37]", "result": 2.0358}, {"measurement": "OR(R)", "setting": "[37]", "result": 2.0358}, {"measurement": "OR", "setting": "[38]", "result": 2.0374}, {"measurement": "OR(R)", "setting": "[38]", "result": 2.0374}, {"measurement": "Meta-analysis OR", "setting": "rs1564078, A1 (non-ref) G, A2 (ref) A", "result": 0.78}, {"measurement": "OR", "setting": "[39]", "result": 0.7104}, {"measurement": "OR(R)", "setting": "[39]", "result": 0.7104}, {"measurement": "OR", "setting": "[40]", "result": 0.6056}, {"measurement": "OR(R)", "setting": "[40]", "result": 0.6056}, {"measurement": "OR", "setting": "[41]", "result": 1.64}, {"measurement": "OR(R)", "setting": "[41]", "result": 1.64}, {"measurement": "OR", "setting": "[42]", "result": 0.5263}, {"measurement": "OR(R)", "setting": "[42]", "result": 0.5263}, {"measurement": "Meta-analysis OR", "setting": "rs1580713, A1 (non-ref) A, A2 (ref) G", "result": 1.57}, {"measurement": "OR", "setting": "[43]", "result": 1.3993}, {"measurement": "OR(R)", "setting": "[43]", "result": 1.3993}, {"measurement": "OR", "setting": "[44]", "result": 2.1081}, {"measurement": "OR(R)", "setting": "[44]", "result": 2.1081}, {"measurement": "OR", "setting": "[45]", "result": 0.6096}, {"measurement": "OR(R)", "setting": "[45]", "result": 0.6096}, {"measurement": "OR", "setting": "[46]", "result": 0.6175}, {"measurement": "OR(R)", "setting": "[46]", "result": 0.6175}]}]}
